Consider 14 compounds from PubChem BioAssay AID218 (DTP/NCI, 2004).

The list does not hold the whole screen: it gathers tests that were run many times, whatever their T/C, doses with no T/C, and many T/C values between a quarter and a half above the control. Further doses and runs are listed elsewhere. T/C is the treated group as % of the vehicle group. Schedules are NCI's codes, read here as Q, the interval in days (D) or hours (H), X, the number of doses. Some doses have a count of surviving animals in place of a T/C: the source holds a T/C of zero for them, seemingly a mark for toxic or unscored doses. Survivors were counted at the toxicity check, usually on the fifth day, unless a day is given; later deaths do not show. Some schedules carry Z or #; the key to these is not given. Non-standard residues stand in square brackets, D forms with d. Residues, ends and D or L forms follow the SMILES beside them. Ac5c = NC1(C(=O)O)CCCC1

For this assay, the system named is C57BL/6 mice, Adenocarcinoma 755 sc, tumor weight T/C. The assay is described as follows: NCI In Vivo Anticancer Drug Screen. Data for tumor model Adenocarcinoma 755 (subcutaneous) in C57BL/6 mice. To be noted: T/C endpoint: mean tumor weight, higher T/C = larger tumour; for T/C: evaluated on day 12. The protocol:
The antitumor activity of compounds was measured in mice bearing transplantable tumors. Survival or tumor size were measured and the results are expressed as the measurement made in the treated group (T) divided by the measurement made in the vehicle treated control group (C). The tumor model used in this assay is Adenocarcinoma 755 (subcutaneous) in C57BL/6 mice

The mark [1] stands for this setting: dose: 100.0 mg/kg/injection, schedule: Q01DX011 (ip), vehicle: saline.
[2] abbreviates: dose: 200.0 mg/kg/injection, schedule: Q01DX011 (ip), vehicle: saline.

For `C[N+](C)(C)c1ncnc2nc[nH]c12`, the T/C (dose: 20.0 mg/kg/injection, schedule: Q01DX006 (iv), vehicle: saline) is 131 % of control. In addition, the survivor count runs as follows: (dose: 40.0 mg/kg/injection, schedule: Q#A X022 (ip), vehicle: saline) 6 of 10; (dose: 80.0 mg/kg/injection, schedule: Q01DX011 (ip), vehicle: saline) 5 of 10; (dose: 160.0 mg/kg/injection, schedule: Q01DX011 (ip), vehicle: saline) 4 of 10; (dose: 160.0 mg/kg/injection, schedule: Q01DX011 (oral), vehicle: saline) 2 of 10; (dose: 240.0 mg/kg/injection, schedule: Q03DX004 (ip), vehicle: saline) 1 of 10; (dose: 320.0 mg/kg/injection, schedule: Q01DX011 (oral), vehicle: saline) 0 of 10. Also, the survivor count by setting is: (dose: 600.0 mg/kg/injection, schedule: Q01DX001 (ip), vehicle: saline) 0 of 10; (dose: 640.0 mg/kg/injection, schedule: Q01DX011 (oral), vehicle: saline) 2 of 10.
For `CCSCCC(N)C(=O)O` (stereo not given), the survivor count (dose: 150.0 mg/kg/injection, schedule: Q01DX011 (ip), vehicle: saline) was 6 of 10.
Consider `Oc1ccc2ccccc2c1N=Nc1ccc(F)cc1`, for which the survivor count is, setting by setting: under setting [1], 5 of 10; under setting [2], 1 of 10; (dose: 600.0 mg/kg/injection, schedule: Q01DX011 (ip), vehicle: saline) 5 of 10.
`Nc1c(Br)cc2c(c1Br)Cc1cc([N+](=O)[O-])ccc1-2`: the survivor count (dose: 62.5 mg/kg/injection, schedule: Q01DX011 (ip), vehicle: saline) was 4 of 10 and the survivor count (dose: 250.0 mg/kg/injection, schedule: Q01DX011 (ip), vehicle: saline) is on record as 5 of 10.
On to `OCC1OC(n2cnc3c(=S)nc[nH]c32)C(O)C1O` (stereo not given), for which the survivor count reads like this: (dose: 80.0 mg/kg/injection, schedule: Q01DX011 (oral), vehicle: alkali diluted with saline) 5 of 10; (dose: 120.0 mg/kg/injection, schedule: Q01DX011 (oral), vehicle: alkali diluted with saline) 2 of 10; (dose: 125.0 mg/kg/injection, schedule: Q01DX011 (ip), vehicle: carboxymethylcellulose (CMC)) 0 of 10; (dose: 150.0 mg/kg/injection, schedule: Q01DX011 (ip), vehicle: carboxymethylcellulose (CMC)) 0 of 10; (dose: 960.0 mg/kg/injection, schedule: Q01DX001 (oral), vehicle: alkali diluted with saline) 3 of 10.
Turning to `CN(C)C1C(=O)C(C(N)=O)=C(O)C2(O)C(=O)C3=C(O)c4c(O)cccc4C(C)(O)C3C(O)C12` (stereo not given), the survivor count (dose: 175.0 mg/kg/injection, schedule: Q02DX006 (ip), vehicle: water) is recorded as 3 of 10.
`Cn1ncc2c(N)ncnc21`: the survivor count (dose: 60.0 mg/kg/injection, schedule: Q02DX006 (ip), vehicle: other) is listed as 5 of 10.
Regarding `O=C([O][Hg][CH2]C1COC([CH2][Hg][O]C(=O)c2ccccc2)CO1)c1ccccc1` (stereo not given), the T/C (dose: 8.0 mg/kg/injection, schedule: Q01DX009 (ip), vehicle: saline) was 128 % of control. The survivor count runs as follows: (dose: 64.0 mg/kg/injection, schedule: Q01DX010 (ip), vehicle: saline) 3 of 10; (dose: 128.0 mg/kg/injection, schedule: Q01DX010 (ip), vehicle: saline) 0 of 10.
Turning to `CS(=O)(=O)OCCCOS(C)(=O)=O`, where the note is “dose: 60.0 mg/kg/injection, schedule: Q01DX011 (ip), vehicle: methylcellulose (MC)”, the survivor count is recorded as 5 of 10.
Take `CCc1c(CC(=O)O)c2cc(C)ccc2n1Cc1ccc(Cl)cc1`: the survivor count under setting [1] is on record as 6 of 10.
For the compound `N=[N+]=CC(=O)OCC(N)C(=O)O` (stereo not given), the survivor count (dose: 4.0 mg/kg/injection, schedule: Q01DX011 (ip), vehicle: saline) was 6 of 10; the survivor count (dose: 6.0 mg/kg/injection, schedule: Q01DX011 (ip), vehicle: saline) is listed as 5 of 10; the survivor count (dose: 8.0 mg/kg/injection, schedule: Q01DX011 (ip), vehicle: saline) was 5 of 10.
Turning to `c1ccc2nc(-c3cc4ccccc4s3)ccc2c1`, the survivor count by setting is: (dose: 133.0 mg/kg/injection, schedule: Q01DX011 (ip), vehicle: saline) 4 of 10; under setting [2], 6 of 10; (dose: 450.0 mg/kg/injection, schedule: Q01DX011 (ip), vehicle: saline) 6 of 10.
For the compound `O=C(O)C(=O)CF`, under setting [1], the survivor count is 0 of 10.
As for `NCC(=O)NC1(C(=O)O)CCCC1` (H-Gly-[Ac5c]-OH), the survivor count under setting [2] is given as 0 of 10.
